This experiment concerns the target T1, OLIG2 (mouse (endogenous in cultured mouse OL lineage cells)) (UniProt Q9EQW6).
T1 sequence: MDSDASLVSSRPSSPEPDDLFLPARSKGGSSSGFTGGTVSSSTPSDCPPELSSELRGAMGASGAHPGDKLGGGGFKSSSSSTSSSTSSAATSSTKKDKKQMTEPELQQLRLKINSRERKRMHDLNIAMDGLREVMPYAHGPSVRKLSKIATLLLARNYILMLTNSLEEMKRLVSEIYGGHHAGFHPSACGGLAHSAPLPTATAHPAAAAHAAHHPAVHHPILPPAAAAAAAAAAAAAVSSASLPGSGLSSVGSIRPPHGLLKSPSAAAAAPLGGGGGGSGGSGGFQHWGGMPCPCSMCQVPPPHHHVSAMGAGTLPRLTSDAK
The experiment in a line: proximity ligation; Duolink PLA kit on fixed cultured mouse OPs, probe antibodies against INO80 and OLIG2; anti-SOX10 as positive and anti-PDGFRA as negative control.

Chains of the proteins cited; added tags and fusions are not shown.
UniProt Q6ZPV2: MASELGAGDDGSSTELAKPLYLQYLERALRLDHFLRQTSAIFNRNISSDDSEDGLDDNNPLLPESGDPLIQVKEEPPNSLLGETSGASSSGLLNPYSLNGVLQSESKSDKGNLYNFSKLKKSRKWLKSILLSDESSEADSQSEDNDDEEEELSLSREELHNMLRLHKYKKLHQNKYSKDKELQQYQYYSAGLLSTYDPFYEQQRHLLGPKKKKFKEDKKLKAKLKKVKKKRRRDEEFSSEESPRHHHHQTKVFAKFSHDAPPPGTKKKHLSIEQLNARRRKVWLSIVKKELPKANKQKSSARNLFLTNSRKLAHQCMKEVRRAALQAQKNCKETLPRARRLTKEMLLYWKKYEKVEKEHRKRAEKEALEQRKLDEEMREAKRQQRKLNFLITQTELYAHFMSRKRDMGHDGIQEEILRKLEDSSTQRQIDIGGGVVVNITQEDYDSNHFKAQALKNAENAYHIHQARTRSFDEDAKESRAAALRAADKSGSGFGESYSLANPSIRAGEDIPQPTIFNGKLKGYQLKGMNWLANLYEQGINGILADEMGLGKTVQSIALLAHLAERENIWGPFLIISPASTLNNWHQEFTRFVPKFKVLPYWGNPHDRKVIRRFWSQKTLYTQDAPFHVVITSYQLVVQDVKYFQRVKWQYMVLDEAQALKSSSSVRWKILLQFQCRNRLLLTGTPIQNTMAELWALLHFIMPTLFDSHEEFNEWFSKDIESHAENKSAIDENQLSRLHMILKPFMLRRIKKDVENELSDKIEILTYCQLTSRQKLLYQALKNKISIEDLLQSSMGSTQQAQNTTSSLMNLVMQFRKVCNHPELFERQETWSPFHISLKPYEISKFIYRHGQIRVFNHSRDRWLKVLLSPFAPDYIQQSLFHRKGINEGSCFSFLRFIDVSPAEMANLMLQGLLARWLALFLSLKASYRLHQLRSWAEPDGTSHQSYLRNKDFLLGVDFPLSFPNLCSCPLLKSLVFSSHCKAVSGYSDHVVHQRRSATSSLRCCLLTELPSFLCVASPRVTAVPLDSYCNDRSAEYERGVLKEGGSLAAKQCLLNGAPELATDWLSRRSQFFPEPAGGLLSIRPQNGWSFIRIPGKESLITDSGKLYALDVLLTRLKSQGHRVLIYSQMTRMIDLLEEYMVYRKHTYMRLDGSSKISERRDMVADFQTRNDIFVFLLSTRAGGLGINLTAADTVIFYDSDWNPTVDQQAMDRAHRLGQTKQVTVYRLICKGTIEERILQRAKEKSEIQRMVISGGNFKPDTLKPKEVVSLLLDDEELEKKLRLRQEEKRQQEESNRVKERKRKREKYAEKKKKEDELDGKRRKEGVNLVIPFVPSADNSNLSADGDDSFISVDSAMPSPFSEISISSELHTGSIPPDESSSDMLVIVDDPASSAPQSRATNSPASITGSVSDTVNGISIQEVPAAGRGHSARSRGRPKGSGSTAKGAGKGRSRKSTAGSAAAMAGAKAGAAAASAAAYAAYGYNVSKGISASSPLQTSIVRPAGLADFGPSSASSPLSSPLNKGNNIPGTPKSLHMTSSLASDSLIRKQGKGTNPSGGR

These are yes or no findings as the source states them, for the method shown. In cells and extracts the contact can be indirect. Some binding calls cover weakened binding; strength is not graded here.

Turning to INO80 (from UniProt Q6ZPV2 1-1559), the binding entry is on record as “binds”.

The values above are taken from publication PMC12012327.
